Measurements taken from paper PMC6199744, “Development of Chemical Proteomics for the Folateome and Analysis of the Kinetoplastid Folateome” (ACS Infectious Diseases, 2018).
Several values for one entry are separate records, joined by “and”; a condition that tells them apart may be missing. Equal entries are not always repeated. Where two headings read alike, the source gives them in different places. The source gives many values for each of these; only a part stands here.

Test system: L. major lysate proteins
Assay: Multitargeted bead mixture chemoproteomics, single concentration competition, proteome-wide
Format: binding

With `CCCCCCOc1ccc(Cc2cnc(N)nc2N)cc1` [compound 1] the fold change was 1.07 and 1.02 and 1.06 and 0.86 and 1.27 and 1.01, the fold change (LINJ.11.0960 40S RIBOSOMAL PROTEIN S5, vehicle control = 1) was 0.94 and the fold change (LINJ.11.1180 40S RIBOSOMAL PROTEIN S15A, PUTATIVE, vehicle control = 1) was 1.23. For the same compound, the fold change (LINJ.15.1170 HYPOTHETICAL PROTEIN, CONSERVED, vehicle control = 1) was 0.94, the fold change (LINJ.18.0270 GLYCOGEN SYNTHASE KINASE 3, vehicle control = 1) was 0.99 and the fold change (LINJ.21.1790 40S RIBOSOMAL PROTEIN S11, PUTATIVE, vehicle control = 1) was 0.92. For the same compound, the fold change (LINJ.22.0180 HYPOTHETICAL PROTEIN, CONSERVED, vehicle control = 1) was 1.73, the fold change (LINJ.25.2170 HY[…], CONSERVED, vehicle control = 1) was 1.02 and the fold change (LINJ.28.2870 PROTEIN PHOSPHATASE 4 CATALYTIC SUBUNIT, PUTATIVE, vehicle control = 1) was 0.71. The fold change (LINJ.29.0020 TRANSCRIPTION FACTOR-LIKE PROTEIN, vehicle control = 1) was 0.83, the fold change (LINJ.29.0110 HY[…], CONSERVED, vehicle control = 1) was 1.07 and the fold change (LINJ.30.3080 EUKARYOTIC TRANSLATION INITIATION FACTOR 3 SUBUNIT 7-LIKE PROTEIN, vehicle control = 1) was 0.98. For the same compound, the fold change (LINJ.33.0960 40S RIBOSOMAL PROTEIN S3, PUTATIVE, vehicle control = 1) was 1.16, the fold change (LINJ.35.1820 HYPOTHETICAL PROTEIN, CONSERVED, vehicle control = 1) was 0.74 and the fold change (LINJ.35.2240 RNA-BINDING PROTEIN, PUTATIVE, vehicle control = 1) was 0.85. For the same compound, the fold change (LINJ.36.1160 RIBOSOMAL PROTEIN L24, PUTATIVE, vehicle control = 1) was 0.73, the fold change (LINJ.36.1580 HYPOTHETICAL PROTEIN, CONSERVED,NIMA-RELATED PROTEIN KINASE, PUTATIVE, vehicle control = 1) was 0.61 and the fold change (LMJF.01.0570 TRIC[…], PUTATIVE, vehicle control = 1) was 0.88. For the same compound, the fold change (LMJF.03.0190 U2 SPLICING AUXILIARY FACTOR, PUTATIVE, vehicle control = 1) was 0.77, the fold change (LMJF.03.0540 26S PROTEASE […], PUTATIVE, vehicle control = 1) was 1.01 and the fold change (LMJF.05.0280 PROTEIN TYROSINE PHOSPHATASE, PUTATIVE, vehicle control = 1) was 1.03. For the same compound, the fold change (LMJF.05.1140 VACUOLAR ATPASE SUBUNIT-LIKE PROTEIN, vehicle control = 1) was 0.87, the fold change (LMJF.06.0370 GLUTAMINE SYNTHETASE, PUTATIVE, vehicle control = 1) was 0.99 and the fold change (LMJF.07.1050 CATION-TRANSPORTING ATPASE, PUTATIVE, vehicle control = 1) was 0.91. For the same compound, the fold change (LMJF.08.0410 HYPOTHETICAL PROTEIN, CONSERVED, vehicle control = 1) was 0.86, the fold change (LMJF.08.1130 PHOSPHORIBOSYLPYROPHOSPHATE SYNTHETASE, vehicle control = 1) was 0.56 and the fold change (LMJF.10.0310 PROTEIN TRANSPORT PROTEIN SEC23, PUTATIVE, vehicle control = 1) was 1.09. It also gave a fold change (LMJF.10.0910 SMALL GTP-BINDING PROTEIN RAB11, PUTATIVE, vehicle control = 1) of 0.76, a fold change (LMJF.11.0590 3-[…]-COA C[…] SUBUNIT, PUTATIVE, vehicle control = 1) of 0.8 and a fold change (LMJF.11.1000 PYRUVATE PHOSPHATE DIKINASE, PUTATIVE, vehicle control = 1) of 0.85. For the same compound, the fold change (LMJF.11.1030 HY[…], CONSERVED, vehicle control = 1) was 1.03, the fold change (LMJF.13.1230 40S RIBOSOMAL PROTEIN S4, PUTATIVE, vehicle control = 1) was 1.06 and the fold change (LMJF.14.0670 FATTY ACID ELONGASE, PUTATIVE, vehicle control = 1) was 1.12. The fold change (LMJF.14.1320 SERINE […] (SHMT-S), vehicle control = 1) was 1.05, the fold change (LMJF.15.0040 HYPOTHETICAL PROTEIN, CONSERVED, vehicle control = 1) was 0.66 and the fold change (LMJF.15.0970 NAD/FAD DEPENDENT DEHYDROGENASE, PUTATIVE, vehicle control = 1) was 0.41. It also gave a fold change (LMJF.16.0440 FUCOSE KINASE, PUTATIVE, vehicle control = 1) of 0.77, a fold change (LMJF.16.0550 OROTIDINE-5-PHOSPHATE DECARBOXYLASE/OROTATE PHOSPHORIBOSYLTRANSFERASE, PUTATIVE, vehicle control = 1) of 0.95 and a fold change (LMJF.17.1290 TRANSLATION INITIATION FACTOR, PUTATIVE, vehicle control = 1) of 0.39. For the same compound, the fold change (LMJF.18.0700 HYPOTHETICAL PROTEIN, CONSERVED, vehicle control = 1) was 0.81, the fold change (LMJF.18.1090 CAMP PHOSPHO[…], PUTATIVE, vehicle control = 1) was 1.03 and the fold change (LMJF.18.1280 HYPOTHETICAL PROTEIN, CONSERVED, vehicle control = 1) was 0.96. For the same compound, the fold change (LMJF.18.1510 P-TYPE H -ATPASE, PUTATIVE, vehicle control = 1) was 1, the fold change (LMJF.19.0200 ADP,ATP CARRIER PROTEIN 1, MIT[…], PUTATIVE, vehicle control = 1) was 1.11 and the fold change (LMJF.19.1510 HYPOTHETICAL PROTEIN, CONSERVED, vehicle control = 1) was 0.91. For the same compound, the fold change (LMJF.20.1180 CALPAIN-LIKE CYSTEINE PEPTIDASE, PUTATIVE, vehicle control = 1) was 0.71, the fold change (LMJF.21.0015 HISTONE H4, vehicle control = 1) was 0.87 and the fold change (LMJF.21.0250 HEXOKINASE, PUTATIVE, vehicle control = 1) was 0.95. It also gave a fold change (LMJF.21.0820 HY[…], CONSERVED, vehicle control = 1) of 0.84, a fold change (LMJF.21.1450 ARGININE N-METHYLTRANSFERASE, TYPE II, PUTATIVE, vehicle control = 1) of 0.8 and a fold change (LMJF.21.1770 ATP SYNTHASE F1 SUBUNIT GAMMA PROTEIN, PUTATIVE, vehicle control = 1) of 1.18. For the same compound, the fold change (LMJF.21.1860 BETA TUBULIN, vehicle control = 1) was 1.05, the fold change (LMJF.22.0770 NADH-CYTOCHROME B5 REDUCTASE, PUTATIVE, vehicle control = 1) was 0.77 and the fold change (LMJF.22.0990 HYPOTHETICAL PROTEIN, CONSERVED, vehicle control = 1) was 0.93. It also gave a fold change (LMJF.22.1630 CCR4 ASSOCIATED FACTOR, PUTATIVE, vehicle control = 1) of 0.74, a fold change (LMJF.23.0080 HYPOTHETICAL PROTEIN, CONSERVED, vehicle control = 1) of 0.91 and a fold change (LMJF.23.0110 GDP-MANNOSE PYROPHOSPHORYLASE, vehicle control = 1) of 0.92. For the same compound, the fold change (LMJF.23.0210 ATP-BINDING CASSETTE PROTEIN SUBFAMILY C, MEMBER 1, PUTATIVE, vehicle control = 1) was 0.78, the fold change (LMJF.23.0640 HYPOTHETICAL PROTEIN, CONSERVED, vehicle control = 1) was 0.88 and the fold change (LMJF.24.0070 HYPOTHETICAL PROTEIN, CONSERVED, vehicle control = 1) was 0.91. The fold change (LMJF.27.0130 HY[…], CONSERVED, vehicle control = 1) was 1.17, the fold change (LMJF.27.0650 HYPOTHETICAL PROTEIN, CONSERVED, vehicle control = 1) was 0.96 and the fold change (LMJF.28.2310 EUKARYOTIC TRANSLATION INITIATION FACTOR, PUTATIVE, vehicle control = 1) was 0.95. For the same compound, the fold change (LMJF.28.2510 ACYL-COA DEHYDROGENASE, PUTATIVE, vehicle control = 1) was 0.95 and the fold change (LMJF.29.1500 HYPOTHETICAL PROTEIN, CONSERVED, vehicle control = 1) was 0.8.
